Here are results for two molecules from publication PMC9587234.

The test addresses T1, BUD31 (human (endogenous in HEYA8)) (UniProt P41223).
T1 sequence: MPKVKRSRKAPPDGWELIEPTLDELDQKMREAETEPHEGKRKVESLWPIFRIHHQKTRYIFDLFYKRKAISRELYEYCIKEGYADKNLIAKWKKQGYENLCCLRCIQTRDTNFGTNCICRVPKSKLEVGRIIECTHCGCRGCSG
The test can be described thus: co-IP; co-immunoprecipitation assay (Fig. S4b), detected by western blot; bait, cells and conditions not told in the text shown. (In general: Immunoblotting shows a protein as a band on a membrane.)

Results are given in words; binding and its absence hold for the method and conditions named. Binding seen in cells or lysates may run through a third protein. Some binding calls cover weakened binding; strength is not graded here.

B1: SART1 (protein, UniProt O43290 1-800)
chain: MGSSKKHRGEKEAAGTTAAAGTGGATEQPPRHREHKKHKHRSGGSGGSGGERRKRSRERGGERGSGRRGAEAEARSSTHGRERSQAEPSERRVKREKRDDGYEAAASSKTSSGDASSLSIEETNKLRAKLGLKPLEVNAIKKEAGTKEEPVTADVINPMALRQREELREKLAAAKEKRLLNQKLGKIKTLGEDDPWLDDTAAWIERSRQLQKEKDLAEKRAKLLEEMDQEFGVSTLVEEEFGQRRQDLYSARDLQGLTVEHAIDSFREGETMILTLKDKGVLQEEEDVLVNVNLVDKERAEKNVELRKKKPDYLPYAEDESVDDLAQQKPRSILSKYDEELEGERPHSFRLEQGGTADGLRERELEEIRAKLRLQAQSLSTVGPRLASEYLTPEEMVTFKKTKRRVKKIRKKEKEVVVRADDLLPLGDQTQDGDFGSRLRGRGRRRVSEVEEEKEPVPQPLPSDDTRVENMDISDEEEGGAPPPGSPQVLEEDEAELELQKQLEKGRRLRQLQQLQQLRDSGEKVVEIVKKLESRQRGWEEDEDPERKGAIVFNATSEFCRTLGEIPTYGLAGNREEQEELMDFERDEERSANGGSESDGEENIGWSTVNLDEEKQQQDFSASSTTILDEEPIVNRGLAAALLLCQNKGLLETTVQKVARVKAPNKSLPSAVYCIEDKMAIDDKYSRREEYRGFTQDFKEKDGYKPDVKIEYVDETGRKLTPKEAFRQLSHRFHGKGSGKMKTERRMKKLDEEALLKKMSSSDTPLGTVALLQEKQKAQKTPYIVLSGSGKSMNANTITK
For the molecule B1, the binding result is “binds”.

B2: U2AF1 (protein, UniProt Q01081 1-240)
chain: MAEYLASIFGTEKDKVNCSFYFKIGACRHGDRCSRLHNKPTFSQTIALLNIYRNPQNSSQSADGLRCAVSDVEMQEHYDEFFEEVFTEMEEKYGEVEEMNVCDNLGDHLVGNVYVKFRREEDAEKAVIDLNNRWFNGQPIHAELSPVTDFREACCRQYEMGECTRGGFCNFMHLKPISRELRRELYGRRRKKHRSRSRSRERRSRSRDRGRGGGGGGGGGGGGRERDRRRSRDRERSGRF
In the case of B2, the binding result was “binds”.
